Some peptides are written in HELM: one residue between dots, names in brackets for other building blocks, links after the first $. Square brackets hold non-standard residues; d marks the D form. pGlu = O=C1CC[C@@H](C(=O)O)N1
Test: general procedure: Fmoc solid-phase peptide synthesis; Wang polystyrene resin (Boc-Val-CM resin for chelator conjugates); TBTU/DIPEA
[1] = conjugation step, 214 nm, one disulfide bridge, sequence written open
[2] = whole synthesis, 229 nm, one disulfide bridge, sequence written open
[3] = whole synthesis, 214 nm, one disulfide bridge, sequence written open

Row | Substance | final HPLC purity [2] [%] | final HPLC purity (whole synthesis, 229 nm) [%] | other results
1 | DOTA-Ala-Cys-Phe-Bip-Lys-Tyr-Cys-Val-OH | – | – | final HPLC purity [1]: ≧98%
2 | H-Ala-Cys-Phe- -Lys-Tyr-Cys-Val-OH | 98 | – | –
3 | H-Ala-Cys-Phe- ? Lys-Tyr-Cys-Val-OH [listing 1 of 5 here] | – | 97 | –
4 | H-Ala-Cys-Phe- ? Lys-Tyr-Cys-Val-OH [listing 2 of 5 here] | – | 98 | –
5 | H-Ala-Cys-Phe- ? Lys-Tyr-Cys-Val-OH [listing 3 of 5 here] | – | 98 | –
6 | H-Ala-Cys-Phe- ? Lys-Tyr-Cys-Val-OH [listing 4 of 5 here] | – | 98 | –
7 | H-Ala-Cys-Phe- ? Lys-Tyr-Cys-Val-OH [listing 5 of 5 here] | – | 97 | –
8 | H-Ala-Cys-Phe-Aia-Lys-Tyr-Cys-Val-OH | 98 | – | –
9 | H-Ala-Cys-Phe-Bip-Lys-Tyr-Cys-Val-OH | – | – | final HPLC purity [3]: ≧98%
10 | H-Ala-Cys-Phe-Cha-Lys-Tyr-Cys-Val-OH | 97 | – | –
11 | H-Ala-Cys-Phe-Dip-Lys-Tyr-Cys-Val-OH | 97 | – | –
12 | H-Ala-Cys-Phe-Nal-Lys-Tyr-Cys-Val-OH | 98 | – | –
13 | H-Ala-Cys-Phe-Phe(4-I)-Lys-Tyr-Cys-Val-OH | – | – | final HPLC purity [3]: ≧98%
14 | H-Ala-Cys-Phe-Phe(I)-Lys-Tyr-Cys-Val-OH | 98 | – | –
15 | H-Ala-Cys-Phe-Phg-Lys-Tyr-Cys-Val-OH | 97 | – | –
16 | H-Ala-Cys-Phe-Tic-Lys-Tyr-Cys-Val-OH | 97 | – | –
17 | H-Ala-Cys-Phe-Tiq-Lys-Tyr-Cys-Val-OH | 98 | – | –
18 | H-Ala-Cys-Phe-Tiq-Orn-Tyr-Cys-Val-OH | 98 | – | –
19 | H-Ala-Cys-Phe-Tpi-Lys-Tyr-Cys-Val-OH | 97 | – | –
20 | NOTA-Ala-Cys-Phe-Bip-Lys-Tyr-Cys-Val-OH | – | – | final HPLC purity [1]: ≧98%
21 | PEPTIDE1{A.C.F.[Tpi].[Orn].Y.C.V}$PEPTIDE1,PEPTIDE1,2:R3-7:R3$$$V2.0 | – | 98 | –
22 | PEPTIDE1{A.[Pen].F.[Tiq].K.Y.C.V}$PEPTIDE1,PEPTIDE1,2:R3-7:R3$$$V2.0 | – | 98 | –
23 | [pGlu]HGTAPE-NH2 | – | – | final HPLC purity (whole synthesis, 214 nm): 95%

Source: patent US9340575B2 (INSTITUT NATIONAL DE LA RECHERCHE SCIENTIFIQUE, priority 2011, dated 2016)
